Data as given in PubChem BioAssay AID485314 (National Center for Advancing Translational Sciences (NCATS), 2010).
The campaign covered roughly 340,000 compounds. About 4,500 (1.3%) were called active. Inconclusive means that the source gave no clear call. Such entries were picked first, then a sample of the others. The call rests on the fitted dose curve; in most records, active means well fitted inhibition curve with a large enough effect; inconclusive means small, poorly fitted or top-dose-only effect, or another doubt; inactive means no such curve, though single readings can be large or run the other way. Potencies of inconclusive entries are doubtful fits and often do not repeat.
On the % scale 0 is the no-effect control and ±100 the full control effect; potency means the concentration at half of the fitted maximal effect.

The molecules below were run against DNA polymerase beta (Homo sapiens) (UniProt P06746) (assay: qHTS Assay for Inhibitors of DNA Polymerase Beta). Details: Pol beta primer extension/strand displacement, fluorescence kinetic; activity change, negative = inhibition: at 114 µM (top of the series).
In short: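 Values derive from four-parameter Hill fits of normalized kinetic data: reads at 0 and 10 min following addition of 50 nM substrate to 10 nM Pol beta preincubated 15 min with compound.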
With `CC(=O)Nc1ccc(NC(=O)CN2C(=O)CC(c3ccco3)Sc3ccccc32)cc1` (stereo not drawn) the Potency was inconclusive: 28.2 µM [inhibitor, single point]. `CCc1cccc2c(C#N)cn(CC(=O)NCCOC)c12` was tested, and the Potency was inconclusive: 0.891 µM [inhibitor, full curve, poor fit]. `Cc1ccc(-c2cc(C(F)(F)F)n3nc(-c4cccc(Br)c4)cc3n2)cc1` was tested, and the “activity change, negative = inhibition” value was inactive: 44.1%. In the case of `COc1cc(/C=C/C(=O)O)cc2c1OCCO2`, the Potency is reported as inconclusive: 39.8 µM [inhibitor, single point]. For `Cc1cc(C)c(C)c(S(=O)(=O)N2CCC(C(=O)OCC(=O)N3c4ccccc4NC(=O)C3(C)C)CC2)c1C`, the Potency was inconclusive: 15.8 µM [inhibitor, partial curve]. With `COC(=O)c1cccc(NC(=O)c2ccc(S(=O)(=O)N3CCN(C)CC3)cc2)c1` the Potency was inconclusive: 100 µM [inhibitor, single point]. With `Cc1cc(C)nc(NS(=O)(=O)c2ccc(N/C=C/C(=O)c3ccc(Cl)cc3)cc2)n1` the Potency was inconclusive: 11.2 µM [inhibitor, partial curve]. With `CN1CCN(c2ccccc2NC(=O)c2ccc(-c3cccc([N+](=O)[O-])c3)o2)CC1` the Potency was inconclusive: 79.4 µM [inhibitor, single point]. In the case of `NC(=O)COC(=O)c1ccc(S(=O)(=O)NCc2ccco2)cc1`, the Potency is reported as inconclusive: 20 µM [inhibitor, full curve, poor fit]. In the case of `CSc1sc2ccccc2[n+]1CCCS(=O)(=O)[O-]`, the Potency is reported as inconclusive: 0.501 µM [inhibitor, full curve, poor fit]. For `CCc1ccc(NS(=O)(=O)c2ccc3[nH]cc(C(=O)N4CCc5ccccc54)c(=O)c3c2)cc1`, the Potency was active: 17.8 µM. `COc1ccc(OC)c(/C=N/NC(=O)CSc2cc(C)nc3c(OC)cccc23)c1` was tested, and the Potency was inconclusive: 12.6 µM [inhibitor, partial curve]. With `Cc1[nH][nH]c(=O)c1C(c1ccc(-c2ccccc2C(=O)O)o1)c1c(C)[nH][nH]c1=O` the Potency was active: 10 µM. `COc1ccc(S(=O)(=O)N2CCC(C)CC2)cc1Br` was tested, and the Potency was inconclusive: 89.1 µM [inhibitor, single point]. With `CC1=C/C(=C(\c2ccc(O)c(C)c2)c2ccccc2S(=O)(=O)O)C=CC1=O` the Potency was inconclusive: 39.8 µM [inhibitor, partial curve]. `O=C(O)c1cc(-c2ccco2)[nH]n1` was tested, and the Potency was active: 28.2 µM. In the case of `NS(=O)(=O)c1ccc(CNC(=O)c2cc(-c3ccccc3)nc3ccccc23)cc1`, the Potency is reported as inconclusive: 14.1 µM [inhibitor, full curve, poor fit]. `Cc1ccc(S(=O)(=O)/C(C#N)=C/c2c(N3CC(C)OC(C)C3)nc3c(C)cccn3c2=O)cc1` (stereo not drawn) was tested, and the “activity change, negative = inhibition” value was inactive: -2.26%. In the case of `CSc1c(-c2ccccn2)c(N)nn1C(=O)C1CC1`, the Potency is reported as inconclusive: 79.4 µM [inhibitor, single point]. `COc1ccc(Cn2c(-c3ccco3)nc3oc4cc(OC)ccc4c(=O)c3c2=O)cc1` was tested, and the Potency was inconclusive: 70.8 µM [inhibitor, single point]. For `Cc1ccc(S(=O)(=O)C(CNC(=O)COc2ccccc2)c2cccs2)cc1` (stereo not drawn), the Potency was active: 12.6 µM. With `O=S1(=O)CCOCCCN1Cc1cccc(F)c1` the Potency was inconclusive: 4.47 µM [inhibitor, full curve, poor fit]. In the case of `CCN(CC)S(=O)(=O)c1cccc(NC(=O)COC(=O)/C=C/c2cccs2)c1`, the Potency is reported as inconclusive: 4.47 µM [inhibitor, single point]. With `Cc1cccn2c(=O)c3cc(C(=O)NCCC4=CCCCC4)n(C)c3nc12` the “activity change, negative = inhibition” value was inactive: -1.24%. In the case of `COC(=O)C1=C(C)NC(=O)NC1c1cn(-c2ccccc2)nc1-c1ccc(OC)c(Br)c1` (stereo not drawn), the Potency is reported as inconclusive: 0.891 µM [inhibitor, single point]. In the case of `CC(=O)NS(=O)(=O)c1ccc(NC(=O)c2cc(-c3ccc(C)c(C)c3)nc3ccccc23)cc1`, the Potency is reported as active: 25.1 µM. `N=C(N)c1ccc(/C=C/c2ccc(C(=N)N)cc2O)cc1` was tested, and the Potency was active: 8.91 µM. In the case of `CN(CC1CCCCO1)C(=O)c1cc(COc2ccc(F)cc2Cl)on1` (stereo not drawn), the Potency is reported as inconclusive: 79.4 µM [inhibitor, single point]. With `N#CC(c1ccc(=O)[nH]n1)c1ccc(Cl)cc1Cl` (stereo not drawn) the Potency was inconclusive: 4.47 µM [inhibitor, single point]. `CCOC(=O)c1c(-c2ccccc2)csc1NC(=O)C1CCCO1` (stereo not drawn) was tested, and the Potency was inconclusive: 20 µM [inhibitor, partial curve]. `CCOc1ccc(OCC)c(NC(=O)CCS(=O)(=O)c2ccc(C)cc2)c1` was tested, and the “activity change, negative = inhibition” value was inactive: 8.41%. `CCOC(=O)C1=C(C)N(C)C(=O)NC1c1cc2c(cc1[N+](=O)[O-])OCO2` (stereo not drawn) was tested, and the Potency was active: 17.8 µM. With `O=C(CSc1nccc(=O)[nH]1)N1N=C2/C(=C/c3ccco3)CCCC2C1c1ccco1` (stereo not drawn) the Potency was active: 28.2 µM. With `C(=N\Nc1nc(N2CCCCC2)nc(N2CCCCC2)n1)/c1c[nH]c2ccccc12` the Potency was inconclusive: 89.1 µM [inhibitor, single point]. With `O=c1c(=O)n(-c2ccccc2)ccn1Cc1c(F)cccc1Cl` the Potency was inconclusive: 44.7 µM [inhibitor, partial curve]. With `O=C(c1ccc(C(F)(F)F)cc1)C1CCCN(Cc2cccn2-c2ncccn2)C1` (stereo not drawn) the Potency was inconclusive: 63.1 µM [inhibitor, single point]. In the case of `COc1ccc(NC(=O)c2[nH]c(C)c(C(C)=O)c2C)cc1S(=O)(=O)N1CCOCC1`, the Potency is reported as inconclusive: 0.708 µM [inhibitor, full curve, poor fit]. For `Cc1cc(C)cc(N2CC(c3nnc(NC(=O)c4ccco4)s3)CC2=O)c1` (stereo not drawn), the Potency was inconclusive: 100 µM [inhibitor, single point]. In the case of `CCC(CC)C(=O)Nc1ccccc1SCc1cc(=O)c2cccc(C)c2[nH]1`, the “activity change, negative = inhibition” value is reported as inactive: 6.57%. `CCOC(=O)C1=C(O)/C(=C\c2ccc(CNC(=O)C(=O)Nc3ccc(C)c(C)c3)o2)N=C1C` was tested, and the Potency was inconclusive: 8.91 µM [inhibitor, full curve]. In the case of `O=C(O)C1CN(C(=O)c2ccccc2)c2cc(Cl)ccc2O1` (stereo not drawn), the Potency is reported as inconclusive: 50.1 µM [inhibitor, partial curve, poor fit]. With `O=C(CN1CC[n+]2c(-c3cccs3)csc21)c1ccc(-c2ccccc2)cc1` the Potency was inconclusive: 89.1 µM [inhibitor, single point]. In the case of `CC1=C/C(=C\C=C(C#N)C#N)N(C)c2ccccc21`, the Potency is reported as inconclusive: 0.398 µM [inhibitor, full curve]. `Cc1ccc(S(=O)(=O)c2nc(S(=O)(=O)c3ccc(C)cc3)c(NCCCOC(C)C)s2)cc1` was tested, and the “activity change, negative = inhibition” value was inactive: 7.25%. `COc1ccc(CN2CCN(C(=O)c3cccc4ccccc34)CC2)cc1Br` was tested, and the Potency was inconclusive: 89.1 µM [inhibitor, single point]. In the case of `CC1CCCCN1S(=O)(=O)c1ccc(S(=O)(=O)N2CCN(C)CC2)cc1` (stereo not drawn), the “activity change, negative = inhibition” value is reported as inactive: -0.908%. For `O=S(=O)(c1ccc(-c2ccon2)s1)N1CCN(c2ccncc2)CC1`, the “activity change, negative = inhibition” value was inactive: 12.7%. With `Cc1cc(/C=N/n2c(COc3ccccc3)nc3ccccc3c2=O)c(O)c([N+](=O)[O-])c1` the “activity change, negative = inhibition” value was inactive: -5.09%.
